US20210255195A1, “HIGH PRECISION SPECTRAL FRET ASSAYS” (Regents of the University of Minnesota, priority 2017, published 2021)
At least one compound was matched to its structure with a doubt left.

Test system: endoplasmic reticulum calcium (D1ER sensor)
Test: D1ER cameleon calcium FRET sensor in HEK293 cells (ER calcium depletion), spectral mode
Type: cell-based, human
Settings: saturating drug concentrations, Hill fit of time course
Experimental: Investigation of a CFP and YFP FRET pair was evaluated with the well-known cameleon calcium sensor, in which the calmodulin-binding (M13) domain of myosin light chain kinase (MLCK) and calcium-binding domain of calmodulin are fused together, and located between two fluorescence proteins (eCFP/mCitrine). These calcium sensors have allowed cellular [Ca^2+] to be monitored more directly and reliably than using calcium-sensitive dyes. The endoplasmic reticulum-targeted cameleon sensor (D1ER) was selected because it is known to be sensitive to the SERCA inhibitors thapsigargin, CPA, and BHQ. […] Therefore, calcium depletion due to SERCA inhibition is detected as a decrease in FRET.
A HEK293 stable clone with constitutive expression of the D1ER cameleon calcium sensor was generated using G418 antibiotic selection. […] Cells were harvested and dispensed into 384-well plates containing the same concentrations of thapsigargin, CPA, and BHQ, as previously evaluated with 2CS (FIG. 9). D1ER FRET was monitored only in spectral mode, because the CFP donor cannot be excited effectively by the 473 nm laser used in lifetime mode. ER calcium was monitored by repeatedly scanning the 384 well plate at three-minute intervals over a 120-minute period. […]
SERCA malfunction can result in decreased ATPase activity and/or calcium pumping efficiency. […] D1ER cells were assessed immediately after compound incubation. […]

CC(=O)C1=C(O)[C@@H]2[C@H]3c4c[nH]c5cccc(c45)C[C@H]3C(C)(C)N2C1=O [CPA, cyclopiazonic acid]
T50 (rate of calcium depletion): 11.7 min
